Laboratory results from patent publication US5962633A, “Cytotoxic T-lymphocyte antigen as cysteine protease inhibitor” (Bayer Corporation, priority 1995, dated 1999).
Not every detail of the peptide structures is certain; ends, links or a residue may be inferred. No end group written: not given here.

Sequences of proteins named here, by UniProt entry; tags and fusion partners are left off. Residues count along the entry.
UniProt P07711, 114-288 limits assumed: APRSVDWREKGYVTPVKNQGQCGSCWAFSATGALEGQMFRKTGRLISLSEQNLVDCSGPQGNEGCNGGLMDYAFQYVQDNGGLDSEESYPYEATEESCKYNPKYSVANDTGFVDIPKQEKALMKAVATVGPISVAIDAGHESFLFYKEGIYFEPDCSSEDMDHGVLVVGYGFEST
UniProt P07711, 292-333 limits assumed: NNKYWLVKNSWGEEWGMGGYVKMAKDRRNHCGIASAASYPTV

Biological target: T1, human liver Cathepsin L (Homo sapiens, UniProt P07711)
T1 construct: from tissue; host or cells: human liver
Assay: Cathepsin L fluorescence assay (hydrolysis of Z-Phe-Arg-AMC)
Format: biochemical
Conditions: peptide 1000 uM; printed in the i.c. 50 column
Experimental: A fluorescence based assay was set up according to Barrett and Kirschke (Barrett et al., 1981, Meth. in Enz., 80:535).
The enzyme sample was diluted with 750 μl of assay buffer (340 mM sodium acetate--60 mM acetic acid--4 mM disodium EDTA, pH 5.5 and 8 mM DTT added fresh) and various concentrations of CTAL-2β (a final concentration of 5-50 nM), was added. After an incubation period of 6 minutes at room temperature, 1500 μl of 0.1% Brij 35 was added. The substrate Z-Phe-Arg-AMC (AMC is aminomethyl-coumarin) was added at a final concentration of either 2.5 μM or 5.0 μM.
The fluoresence of the free aminomethyl-coumarin was measured in an SLM 4800S fluorimeter by excitation at 370 nm and emission at 432 nm over a six minute time period. […]
These peptides were tested for inhibition of Cathepsin L activity using the assays described previously. Briefly, Cathepsin L (19 pM final as determined by active site titration using E-64, Barret & Kirschke, 1991) was added to 750 μL of assay buffer consisting of […] sodium acetate--60 mM acetic acid (pH 5.5), 4 mM disodium EDTA, and 8 mM DTT. […] The fluorescence of the free aminomethylcoumarin was measured in an SLM 4800s fluorimeter at excitation of 370 nm and an emission at 432 nm over a 6 minute time period. Fluorence was converted to μM AMC released by using a standard curve generated by plotting μM AMC vs. fluorescence, and plotted vs. time. […]

SLDNEWKEWKTTFAKAYSLDEE [p118] was tested, and the “inhibition of Cathepsin L at 1000 uM peptide” value was “no inhibition”.
